The record followed here is US20230037815A1.

Changes are numbered by the printed parent chain. These are yes or no findings as the source states them, for the method shown. Binding calls can cover weak binding; strength is not graded here.

Sequences and labels used below:
B1: CNG-CD19-103 (antibody, V domains shown)
VH: QVQLVQSGAEVKKPGASVKVSCKASGYTFTDYIMHWVRQAPGQGLEWMGYINPYNDGSKYTEKFQGRVTMTSDTSISTAYMELSRLRSDDTAVYYCARGTYYYGPQLFDYWGQGTTVTVSS
VL: DIVMTQTPLSLSVTPGQPASISCKSSQSLETATGTTYLNWYLQKPGQSPQLLIYRVSRRFSGVPDRFSGSGSGTDFTLKISRVEAEDVGVYYCLQLLEDPYSFGQGTKLEIK
B2: CNG-CD19-109 (antibody, V domains shown)
VH: B1 VH with T28D, M34V, K59L
VL: B1 VL with S28Q, A32S, V56A, R58K
B3: CNG-CD19-105 (antibody, V domains shown)
VH: B1 VH with T28E, Q65E, Q106E
VL: B1 VL with S28R, A32S, Y101P, S102T
B4: CNG-CD19-107 (antibody, V domains shown)
VH: B1 VH with T28D, G66H
VL: B1 VL with A32S, S102T
B5: CNG-CD19-108 (antibody, V domains shown)
VH: B1 VH with T28D, M34V
VL: B1 VL with A32V, R58K, Y101P, S102T
B6: CNG-CD19-110 (antibody, V domains shown)
VH: B1 VH
VL: B1 VL with A32S, V56S, R58K, Y101P, S102T
B7: CNG-CD19-106 (antibody, V domains shown)
VH: B1 VH with T28D, K59E
VL: B1 VL with S102T
B8: CNG-CD19-104 (antibody, V domains shown)
VH: B1 VH with T28D, M34V, Q106E
VL: B1 VL with S26G, A32S, S102T
B9: CNG-CD19-706 (antibody, V domains shown)
VH: QVQLQESGPGLVKPSQTLSLTCTVSGGSIASGMGVSWIRQHPGKGLEWIGHIWWDDDKRYNPALKSRVTISVDTSKNQFSLKLSSVTAADTAVYYCARMELWSYYFDPWGQGTLVTVSS
VL: EIVLTQSPATLSLSPGERATLSCSASSSVGYMHWYQQKPGQAPRLLIYDTSKLASGIPARFSGSGSGTDFTLTISSLEPEDFAVYYCFQGSVYPFTFGQGTKLEIK
B10: CNG-CD19-707 (antibody, V domains shown)
VH: QVQLQESGPGLVKPSQTLSLTCTVSGGSISTSTMGVGWIRQHPGKGLEWIGFIWWDDDKRYNPNLKSRVTMSVDTSKNQFSLKLSSVTAADTAVYYCARMELWSYYFDPWGQGTLVTVSS
VL: B9 VL
B11: CNG-CD19-710 (antibody, V domains shown)
VH: B10 VH with G27V, T33S, F52H, I53A, N64A, M71I
VL: B9 VL with V29F, G30S
B12: CNG-CD19-708 (antibody, V domains shown)
VH: B10 VH
VL: B9 VL with A54S

The test concerns the target cynomolgus CD19 (cynomolgus). The experiment in a line: Octet HTX (ForteBio), IgG on AHC sensor.
As for B1, the binding entry is “binds”.
As for B2, the entry is “binds”.
Regarding B3, the binding result was “binds”.
In the case of B4, the binding result was “binds”.
As for B5, the entry is “binds”; as for B6, “binds”; as for B7, “binds”.
On to B8, for which the binding entry is reported as “binds”.
B9: the binding result is “binds”.
With B10, the binding result is “binds”.
Take B11: the binding entry is given as “binds”.
Consider B12, for which the binding result was “binds”.
